Experimental data taken from patent US20100137445A1, “PLANT DISEASE CONTROL AGENT, AND PLANT DISEASE CONTROL METHOD” (SUMITOMO CHEMICAL COMPANY ,LIMITED, priority 2007, published 2010).
Some results were stated once for a whole list of compounds, not compound by compound.

Key:
[1] = tested on: Erysiphe graminis f. sp. tritici; test: Test of Preventive Effect on Wheat Powdery Mildew; format: in vivo; settings: wheat (Shirogane) seedling, foliage application 500 ppm before inoculation, 7 days at 23° C.
Botrytis cinerea = test: Test of Preventive Effect on Cucumber Gray Mold; format: in vivo; settings: cucumber (Sagamihanjiro) seedling, foliage application 500 ppm before inoculation, 4 days at 12° C. high humidity
Stagonospora nodorum = test: Test of Preventive Effect on Wheat Glume Blotch; format: in vivo; settings: wheat (Shirogane) seedling, foliage application 500 ppm before inoculation, 4 days dark high humidity 18° C. then 4 days lighting
Sclerotinia sclerotiorum = test: Test of Preventive Effect on Cucumber Stem Rot; settings: cucumber (Sagamihanjiro) seedling, foliage application 500 ppm before inoculation, 4 days at 18° C. high humidity

SMILES	area of lesion spots on the treated plant relative to that on the untreated plant [1]	area of lesion spots on the treated plant relative to that on the untreated plant (Botrytis cinerea)	area of lesion spots on the treated plant relative to that on the untreated plant (Stagonospora nodorum)	area of lesion spots on the treated plant relative to that on the untreated plant (Sclerotinia sclerotiorum)
COc1cc(C(=O)N[C@@H](C)C2CCCCC2)cc(OC)c1OC [present compound 4, N-((1S)-1-cyclohexylethyl)-3,4,5-trimethoxybenzamide]	≤ 30%	≤ 30%	–	–
COc1ccc(C(=O)NCC2CCCCC2)cc1F [present compound 7, N-(cyclohexylmethyl)-3-fluoro-4-methoxybenzamide]	–	–	≤ 30%	–
COc1c(F)cc(C(=O)NC2CCCCC2C)cc1F (centres unmarked) [present compound 8, N-(2-methylcyclohexyl)-3,5-difluoro-4-methoxybenzamide]	≤ 30%	≤ 30%	–	≤ 30%
COc1c(F)cc(C(=O)NCC2CCCCC2)cc1F [present compound 9, N-(cyclohexylmethyl)-3,5-difluoro-4-methoxybenzamide]	–	–	–	≤ 30%
COc1c(F)cc(C(=O)NC2CCCCC2)cc1F [present compound 10, N-(cyclohexyl)-3,5-difluoro-4-methoxybenzamide]	≤ 30%	≤ 30%	≤ 30%	≤ 30%
COc1c(F)cc(C(=O)NC2CCCCC2Cl)cc1F (centres unmarked) [present compound 17, N-(2-chlorocyclohexyl)-3,5-difluoro-4-methoxybenzamide]	–	≤ 30%	–	≤ 30%
COc1c(F)cc(C(=O)NC(C)C2CCC2)cc1F (centres unmarked) [present compound 18, N-(1-cyclobutylethyl)-3,5-difluoro-4-methoxybenzamide]	–	≤ 30%	–	≤ 30%
COc1c(F)cc(C(=O)NCC2(O)CCCCC2)cc1F [present compound 19, N-(1-hydroxycyclohexyl)methyl-3,5-difluoro-4-methoxybenzamide]	–	–	–	≤ 30%
COc1c(F)cc(C(=O)NC(C)C(C)C)cc1F (centres unmarked) [present compound 22, N-(1,2-dimethylpropyl)-3,5-difluoro-4-methoxybenzamide]	≤ 30%	≤ 30%	≤ 30%	–
COc1c(F)cc(C(=O)N[C@@H](C)C(C)C)cc1F [present compound 23, N-((1S)-1,2-dimethylpropyl)-3,5-difluoro-4-methoxybenzamide]	≤ 30%	≤ 30%	≤ 30%	–
COc1c(F)cc(C(=O)N[C@@H](C)C(C)(C)C)cc1F [present compound 24, N-((1S)-1,2,2-trimethylpropyl)-3,5-difluoro-4-methoxybenzamide]	–	–	≤ 30%	–
COc1ccc(C(=O)N[C@@H](C)C(C)C)cc1F [present compound 26, N-((1S)-1,2-dimethylpropyl)-3-fluoro-4-methoxybenzamide]	≤ 30%	–	–	–
COc1ccc(C(=O)N[C@@H](C)C(C)(C)C)cc1F [present compound 27, N-((1S)-1,2,2-trimethylpropyl)-3-fluoro-4-methoxybenzamide]	≤ 30%	–	≤ 30%	–
